According to publication PMC10866072, “Design, synthesis, molecular modelling and biological evaluation of novel 6-amino-5-cyano-2-thiopyrimidine derivatives as potent anticancer agents against leukemia and apoptotic inducers” (Journal of Enzyme Inhibition and Medicinal Chemistry, 2024):

Test system: full NCI 60 cell lines panel
Settings: one dose 10^-5 M, 48 h

| Molecule | Delta (one dose mean graph) | Range (one dose mean graph) |
| --- | --- | --- |
| 3-Amino-4-[4-(dimethylamino)phenyl]-1H-pyrazolo[3,4-d]pyrimidine-6-thiol [Compound 3a] | 45.09 | 104.00 |
| 3-Amino-4–(2,4-dichlorophenyl)-1H-pyrazolo[3,4-d] pyrimidine-6-thiol [Compound 3c] | 27.97 | 70.55 |
| 3-Amino-4–(4-chlorophenyl)-1H-pyrazolo[3,4-d] pyrimidine-6-thiol [Compound 3b] | 18.19 | 32.84 |
| 4-Amino-6-[4-(dimethylamino)phenyl]-2-mercaptopyrimidine-5-carboximidohydrazide [Compound 2a] | 35.84 | 65.10 |
| 4-Amino-6–(2,4-dichlorophenyl)-2-mercaptopyrimidine-5-carboximidohydrazide [Compound 2c] | 32.80 | 53.94 |
| 4-Amino-6–(4-chlorophenyl)-2-mercaptopyrimidine-5-carboximidohydrazide [Compound 2b] | 24.07 | 47.54 |
| CN(C)c1ccc(-c2nc(S)nc(N)c2C#N)cc1 [Compound 1a] | 36.37 | 70.76 |
| N#Cc1c(N)nc(S)nc1-c1ccc(Cl)cc1 [Compound 1b] | 33.47 | 84.30 |
| N#Cc1c(N)nc(S)nc1-c1ccc(Cl)cc1Cl [Compound 1c, 4-Amino-6–(2,4-dichlorophenyl)-2-mercaptopyrimidine-5-carbonitrile] | 102.55 | 185.78 |
| CN(C)c1ccc(-c2nc(S)nc(N)c2C(=N)NN=Cc2ccccc2)cc1 [Compound 4a, 4-Amino-6-[4-(dimethylamino)phenyl]-2-mercapto-N'-[phenylmethylene] pyrimidine-5-carboximidohydrazide] | 28.92 | 64.70 |
| CN(C)c1ccc(-c2nc(S)nc(N)c2C(=N)NN=Cc2ccc(Cl)cc2)cc1 [Compound 4b, 4-amino-N'-[(4-chlorophenyl)methylene]-6-[4-(dimethylamino)phenyl]-2-mercapto pyrimidine-5-carboximidohydrazide] | 32.83 | 71.97 |
| CN(C)c1ccc(-c2cc([N+](=O)[O-])ccc2C=NNC(=N)c2cnc(S)nc2N)cc1 [Compound 4c, 4-amino-N'-[6-[4-(dimethylamino)phenyl]-(4-nitrophenyl)methylene]-2-mercapto pyrimidine-5-carboximidohydrazide] | 27.53 | 51.30 |
| COc1ccc(/C=N\NC(=N)c2c(N)nc(S)nc2-c2ccc(N(C)C)cc2)cc1 [Compound 4d, 4-amino-N'-[(1Z)-(4-methoxyphenyl)methylene]-6-[4-(dimethylamino)phenyl]-2-mercapto pyrimidine-5-carboximidohydrazide] | 29.35 | 47.40 |
| CN(C)c1ccc(-c2nc(S)nc(N)c2C(=N)NN=Cc2ccc(Br)cc2)cc1 [Compound 4e, 4-amino-N'-[(4-bromophenyl)methylene]-6-[4-(dimethylamino)phenyl]-2-mercapto pyrimidine-5-carboximidohydrazide] | 33.69 | 91.05 |
| CN(C)c1ccc(-c2nc(S)nc(N)c2C(=N)NN=Cc2ccc(Cl)cc2Cl)cc1 [Compound 4f, 4-amino-N'-[(2,4-dichlorophenyl)methylene]-6-[4-(dimethylamino)phenyl]-2-mercapto pyrimidine-5-carboximidohydrazide] | 31.12 | 98.59 |
| N=C(NN=Cc1ccccc1)c1c(N)nc(S)nc1-c1ccc(Cl)cc1 [Compound 4g, 4-amino-6–(4-chlorophenyl)-2-mercapto-N'-[phenylmethylene]pyrimidine-5-carboximido hydrazide] | 85.08 | 138.92 |
| N=C(NN=Cc1ccc(Cl)cc1)c1c(N)nc(S)nc1-c1ccc(Cl)cc1 [Compound 4h, 4-amino-6–(4-chlorophenyl)-N'-[(4-chlorophenyl)methylene]-2-mercapto pyrimidine-5-carboximidohydrazide] | 24.76 | 55.38 |
| N=C(NN=Cc1ccc([N+](=O)[O-])cc1)c1c(N)nc(S)nc1-c1ccc(Cl)cc1 [Compound 4i, 4-amino-6–(4-chlorophenyl)-2-mercapto-N'-[(4-nitrophenyl)methylene] pyrimidine-5-carboximidohydrazide] | 12.79 | 61.10 |
| COc1ccc(C=NNC(=N)c2c(N)nc(S)nc2-c2ccc(Cl)cc2)cc1 [Compound 4j, 4-amino-6–(4-chlorophenyl)-2-mercapto-N'-[(4-methoxyphenyl)methylene] pyrimidine-5-carboximidohydrazide] | 25.37 | 65.19 |
| N=C(NN=Cc1ccc(Br)cc1)c1c(N)nc(S)nc1-c1ccc(Cl)cc1 [Compound 4k, 4-amino-N'-[(4-bromophenyl)methylene]-6–(4-chlorophenyl)-2-mercapto pyrimidine-5-carboximidohydrazide] | 78.03 | 120.67 |
| N=C(NN=Cc1ccc(Cl)cc1Cl)c1c(N)nc(S)nc1-c1ccc(Cl)cc1 [Compound 4l, 4-amino-6–(4-chlorophenyl)-N'-[(2,4-dichlorophenyl)methylene]-2-mercapto pyrimidine-5-carboximidohydrazide] | 61.56 | 94.18 |
| N=C(NN=Cc1ccccc1)c1c(N)nc(S)nc1-c1ccc(Cl)cc1Cl [Compound 4m, 4-Amino-6–(2,4-dichlorophenyl)-2-mercapto-N'-[phenylmethylene]pyrimidine-5-carboximidohydrazide] | 31.90 | 70.82 |
| N=C(NN=Cc1ccc(Cl)cc1)c1c(N)nc(S)nc1-c1ccc(Cl)cc1Cl [Compound 4n, 4-Amino-N'-[(4-chlorophenyl)methylene]-6–(2,4-dichlorophenyl)-2-mercapto pyrimidine-5-carboximidohydrazide] | 32.98 | 78.90 |
| N=C(NN=Cc1ccc([N+](=O)[O-])cc1)c1c(N)nc(S)nc1-c1ccc(Cl)cc1Cl [Compound 4o, 4-amino-6–(2,4-dichlorophenyl)-2-mercapto-N'-[(4-nitrophenyl)methylene] pyrimidine-5-carboximidohydrazide] | 91.45 | 157.63 |
| COc1ccc(C=NNC(=N)c2c(N)nc(S)nc2-c2ccc(Cl)cc2Cl)cc1 [Compound 4p, 4-amino-6–(2,4-dichlorophenyl)-2-mercapto-N'-[(4-methoxyphenyl)methylene] pyrimidine-5-carboximidohydrazide] | 29.12 | 67.96 |
| N=C(NN=Cc1ccc(Br)cc1)c1c(N)nc(S)nc1-c1ccc(Cl)cc1Cl [Compound 4q, 4-amino-N'-[(4-bromophenyl)methylene]-6–(2,4-dichlorophenyl)-2-mercapto pyrimidine-5-carboximidohydrazide] | 17.63 | 61.45 |
| N=C(NN=Cc1ccc(Cl)cc1Cl)c1c(N)nc(S)nc1-c1ccc(Cl)cc1Cl [Compound 4r, 4-amino-6–(2,4-dichlorophenyl)-N'-[(2,4-dichlorophenyl)methylene]-2-mercapto pyrimidine-5-carboximidohydrazide] | 25.83 | 41.01 |
| CN(C)c1ccc(-c2nc(S)nc(N)c2-c2ncn[nH]2)cc1 [Compound 5a, 4-Aamino-6-[4-(dimethylamino)phenyl]-5-(1H-1,2,4-triazol-5-yl)pyrimidine-2-thiol] | 22.98 | 46.07 |
| Nc1nc(S)nc(-c2ccc(Cl)cc2)c1-c1ncn[nH]1 [Compound 5b, 4-Amino-6–(4-chlorophenyl)-5-(1H-1,2,4-triazol-5-yl)pyrimidine-2-thiol] | 23.81 | 40.25 |
| Nc1nc(S)nc(-c2ccc(Cl)cc2Cl)c1-c1ncn[nH]1 [Compound 5c, 4-Amino-6–(2,4-dichlorophenyl)-5-(1H-1,2,4-triazol-5-yl)pyrimidine-2-thiol] | 50.41 | 70.44 |
